Values quoted from earlier work in US11535856B2, “Stilbenoid prenyltransferases from plants” (Arkansas State University—Jonesboro, priority 2016, dated 2022).
Like-named read-outs stand apart in the source and are kept apart here.

Test system: non-elicited peanut hairy root cultures
Details: cited from earlier work

Question: For `Oc1ccc(/C=C/c2cc(O)cc(O)c2)cc1` [resveratrol, 3,5,4′-trihydroxy-trans-stilbene], which “reduction of initial resveratrol concentration in culture medium” value (0.5 h co-incubation) is on record?
Answer: 47%

Question: What about the “reduction of initial resveratrol concentration in culture medium” value (1 h co-incubation) of the same molecule?
Answer: 97%
